# Experimental data from doi:10.1101/2020.08.03.234229.
# Results are given in words; binding and its absence hold for the method and conditions named. Some binding calls cover weakened binding; strength is not graded here.
# T1: tRNA splicing endonuclease subunit TSEN15 (human) (UniProt Q8WW01)
# T1 sequence: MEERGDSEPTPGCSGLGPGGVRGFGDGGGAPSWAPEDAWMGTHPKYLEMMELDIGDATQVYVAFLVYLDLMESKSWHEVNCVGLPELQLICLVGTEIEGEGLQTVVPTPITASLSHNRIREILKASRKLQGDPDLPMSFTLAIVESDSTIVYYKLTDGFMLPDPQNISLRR
# Target: T1, tRNA splicing endonuclease subunit TSEN15 (human)
# Test: co-expression and co-purification
row,Binder,binding
1,"TSEN34 R58W (PCH mutation), from insect cells (protein, UniProt Q9BSV6 1-310) MLVVEVANGRSLVWGAEAVQALRERLGVGGRTVGALPRGPRQNSRLGLPLLLMPEEAWLLAEIGAVTLVSAPRPDSRHHSLALTSFKRQQEESFQEQSALAAEARETRRQELLEKITEGQAAKKQKLEQASGASSSQEAGSSQAAKEDETSDGQASGEQEEAGPSSSQAGPSNGVAPLPRSALLVQLATARPRPVKARPLDWRVQSKDWPHAGRPAHELRYSIYRDLWERGFFLSAAGKFGGDFLVYPGDPLRFHAHYIAQCWAPEDTIPLQDLVAAGRLGTSVRKTLLLCSPQPDGKVVYTSLQWASLQ",binds
2,"TSEN54 S93P (PCH mutation), from insect cells (protein, UniProt Q7Z6J9 1-526) MEPEPEPAAVEVPAGRVLSARELFAARSRSQKLPQRSHGPKDFLPDGSAAQAERLRRCREELWQLLAEQRVERLGSLVAAEWRPEEGFVELKPPAGKFWQTMGFSEQGRQRLHPEEALYLLECGSIHLFHQDLPLSIQEAYQLLLTDHTVTFLQYQVFSHLKRLGYVVRRFQPSSVLSPYERQLNLDASVQHLEDGDGKRKRSSSSPRSINKKAKALDNSLQPKSLAASSPPPCSQPSQCPEEKPQESSPMKGPGGPFQLLGSLGPSPGPAREGVGCSWESGRAENGVTGAGKRRWNFEQISFPNMASDSRHTLLRAPAPELLPANVAGRETDAESWCQKLNQRKEKLSRREREHHAEAAQFQEDVNADPEVQRCSSWREYKELLQRRQVQRSQRRAPHLWGQPVTPLLSPGQASSPAVVLQHISVLQTTHLPDGGARLLEKSGGLEIIFDVYQADAVATFRKNNPGKPYARMCISGFDEPVPDLCSLKRLSYQSGDVPLIFALVDHGDISFYSFRDFTLPQDVGH",binds
3,"TSEN54 A307S (PCH mutation), from insect cells (protein, UniProt Q7Z6J9 1-526) MEPEPEPAAVEVPAGRVLSARELFAARSRSQKLPQRSHGPKDFLPDGSAAQAERLRRCREELWQLLAEQRVERLGSLVAAEWRPEEGFVELKSPAGKFWQTMGFSEQGRQRLHPEEALYLLECGSIHLFHQDLPLSIQEAYQLLLTDHTVTFLQYQVFSHLKRLGYVVRRFQPSSVLSPYERQLNLDASVQHLEDGDGKRKRSSSSPRSINKKAKALDNSLQPKSLAASSPPPCSQPSQCPEEKPQESSPMKGPGGPFQLLGSLGPSPGPAREGVGCSWESGRAENGVTGAGKRRWNFEQISFPNMSSDSRHTLLRAPAPELLPANVAGRETDAESWCQKLNQRKEKLSRREREHHAEAAQFQEDVNADPEVQRCSSWREYKELLQRRQVQRSQRRAPHLWGQPVTPLLSPGQASSPAVVLQHISVLQTTHLPDGGARLLEKSGGLEIIFDVYQADAVATFRKNNPGKPYARMCISGFDEPVPDLCSLKRLSYQSGDVPLIFALVDHGDISFYSFRDFTLPQDVGH",binds
4,"tRNA splicing endonuclease subunit TSEN2 (protein, UniProt Q8NCE0 1-465) MAEAVFHAPKRKRRVYETYESPLPIPFGQDHGPLKEFKIFRAEMINNNVIVRNAEDIEQLYGKGYFGKGILSRSRPSFTISDPKLVAKWKDMKTNMPIITSKRYQHSVEWAAELMRRQGQDESTVRRILKDYTKPLEHPPVKRNEEAQVHDKLNSGMVSNMEGTAGGERPSVVNGDSGKSGGVGDPREPLGCLQEGSGCHPTTESFEKSVREDASPLPHVCCCKQDALILQRGLHHEDGSQHIGLLHPGDRGPDHEYVLVEEAECAMSEREAAPNEELVQRNRLICRRNPYRIFEYLQLSLEEAFFLVYALGCLSIYYEKEPLTIVKLWKAFTVVQPTFRTTYMAYHYFRSKGWVPKVGLKYGTDLLLYRKGPPFYHASYSVIIELVDDHFEGSLRRPLSWKSLAALSRVSVNVSKELMLCYLIKPSTMTDKEMESPECMKRIKVQEVILSRWVSSRERSDQDDL",binds
5,"TSEN2 H377A (active site mutant) (protein, UniProt Q8NCE0 1-465) MAEAVFHAPKRKRRVYETYESPLPIPFGQDHGPLKEFKIFRAEMINNNVIVRNAEDIEQLYGKGYFGKGILSRSRPSFTISDPKLVAKWKDMKTNMPIITSKRYQHSVEWAAELMRRQGQDESTVRRILKDYTKPLEHPPVKRNEEAQVHDKLNSGMVSNMEGTAGGERPSVVNGDSGKSGGVGDPREPLGCLQEGSGCHPTTESFEKSVREDASPLPHVCCCKQDALILQRGLHHEDGSQHIGLLHPGDRGPDHEYVLVEEAECAMSEREAAPNEELVQRNRLICRRNPYRIFEYLQLSLEEAFFLVYALGCLSIYYEKEPLTIVKLWKAFTVVQPTFRTTYMAYHYFRSKGWVPKVGLKYGTDLLLYRKGPPFYAASYSVIIELVDDHFEGSLRRPLSWKSLAALSRVSVNVSKELMLCYLIKPSTMTDKEMESPECMKRIKVQEVILSRWVSSRERSDQDDL",binds
